The supplement of paper PMC10849652
The list shows a part of the results.

Chains of the proteins cited; added tags and fusions are not shown. Lines headed by an entry give the natural chain unless they say otherwise; changes in a name come on top.
UniProt Q9Y6D0, whole entry, looked up: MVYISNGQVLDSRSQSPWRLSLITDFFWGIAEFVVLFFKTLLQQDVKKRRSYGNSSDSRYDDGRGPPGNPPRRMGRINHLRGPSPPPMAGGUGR
UniProt Q96HI0: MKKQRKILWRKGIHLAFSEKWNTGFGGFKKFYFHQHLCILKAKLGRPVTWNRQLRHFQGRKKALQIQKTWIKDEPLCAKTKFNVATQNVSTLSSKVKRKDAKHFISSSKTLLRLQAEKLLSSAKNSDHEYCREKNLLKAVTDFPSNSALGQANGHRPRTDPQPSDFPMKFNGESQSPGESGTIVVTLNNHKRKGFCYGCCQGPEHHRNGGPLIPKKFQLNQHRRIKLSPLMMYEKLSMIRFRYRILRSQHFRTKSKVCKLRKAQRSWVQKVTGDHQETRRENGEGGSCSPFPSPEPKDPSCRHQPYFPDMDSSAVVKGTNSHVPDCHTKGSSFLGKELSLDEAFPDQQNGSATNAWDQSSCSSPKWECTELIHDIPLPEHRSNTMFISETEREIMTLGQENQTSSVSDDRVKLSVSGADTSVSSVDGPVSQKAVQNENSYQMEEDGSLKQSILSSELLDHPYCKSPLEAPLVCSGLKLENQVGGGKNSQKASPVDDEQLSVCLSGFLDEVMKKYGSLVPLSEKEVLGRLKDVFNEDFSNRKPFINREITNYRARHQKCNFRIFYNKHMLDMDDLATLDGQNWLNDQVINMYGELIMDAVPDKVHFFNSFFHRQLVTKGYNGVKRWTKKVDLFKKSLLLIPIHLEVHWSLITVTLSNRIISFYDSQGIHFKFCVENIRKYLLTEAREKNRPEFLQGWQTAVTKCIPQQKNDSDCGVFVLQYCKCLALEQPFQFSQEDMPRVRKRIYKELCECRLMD
UniProt Q5K651: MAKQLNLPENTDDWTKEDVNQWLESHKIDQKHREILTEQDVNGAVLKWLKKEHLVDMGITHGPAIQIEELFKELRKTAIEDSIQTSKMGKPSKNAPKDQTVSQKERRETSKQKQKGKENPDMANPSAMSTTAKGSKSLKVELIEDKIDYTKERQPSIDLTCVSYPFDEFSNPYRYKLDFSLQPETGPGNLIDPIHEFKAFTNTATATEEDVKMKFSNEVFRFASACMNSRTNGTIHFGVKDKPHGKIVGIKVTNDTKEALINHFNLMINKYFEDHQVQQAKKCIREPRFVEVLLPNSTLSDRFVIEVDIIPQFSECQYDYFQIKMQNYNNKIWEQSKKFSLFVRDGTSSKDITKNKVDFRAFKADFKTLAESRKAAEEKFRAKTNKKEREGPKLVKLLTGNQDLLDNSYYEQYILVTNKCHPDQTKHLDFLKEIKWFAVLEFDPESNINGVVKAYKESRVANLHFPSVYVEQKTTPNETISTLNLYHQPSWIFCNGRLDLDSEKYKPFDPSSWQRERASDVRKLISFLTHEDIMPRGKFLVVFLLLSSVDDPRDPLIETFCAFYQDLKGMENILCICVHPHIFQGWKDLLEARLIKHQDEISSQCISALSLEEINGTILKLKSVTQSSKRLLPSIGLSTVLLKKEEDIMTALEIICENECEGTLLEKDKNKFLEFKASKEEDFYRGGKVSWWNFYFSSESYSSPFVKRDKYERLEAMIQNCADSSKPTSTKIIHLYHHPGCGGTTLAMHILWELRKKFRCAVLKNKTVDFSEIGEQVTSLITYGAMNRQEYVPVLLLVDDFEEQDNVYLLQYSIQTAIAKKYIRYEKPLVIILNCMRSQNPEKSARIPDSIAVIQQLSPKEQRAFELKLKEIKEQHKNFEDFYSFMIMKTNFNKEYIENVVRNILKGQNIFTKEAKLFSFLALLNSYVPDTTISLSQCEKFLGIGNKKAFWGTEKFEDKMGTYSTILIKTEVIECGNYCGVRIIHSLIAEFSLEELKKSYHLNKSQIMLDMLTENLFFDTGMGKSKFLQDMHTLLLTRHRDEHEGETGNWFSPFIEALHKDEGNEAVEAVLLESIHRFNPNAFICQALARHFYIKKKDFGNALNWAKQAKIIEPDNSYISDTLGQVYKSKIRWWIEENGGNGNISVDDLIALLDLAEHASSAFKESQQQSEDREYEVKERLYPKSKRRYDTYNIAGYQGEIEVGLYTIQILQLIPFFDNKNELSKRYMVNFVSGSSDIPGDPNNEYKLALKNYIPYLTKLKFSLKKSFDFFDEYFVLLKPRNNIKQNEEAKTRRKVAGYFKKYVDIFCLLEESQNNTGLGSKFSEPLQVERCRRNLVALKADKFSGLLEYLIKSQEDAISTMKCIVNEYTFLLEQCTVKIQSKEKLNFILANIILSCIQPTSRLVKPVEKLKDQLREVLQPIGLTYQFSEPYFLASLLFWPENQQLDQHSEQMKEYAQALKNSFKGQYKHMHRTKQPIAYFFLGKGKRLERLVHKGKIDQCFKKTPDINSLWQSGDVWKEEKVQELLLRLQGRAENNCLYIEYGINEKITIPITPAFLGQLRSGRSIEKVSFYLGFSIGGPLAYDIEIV
UniProt Q9GZR1: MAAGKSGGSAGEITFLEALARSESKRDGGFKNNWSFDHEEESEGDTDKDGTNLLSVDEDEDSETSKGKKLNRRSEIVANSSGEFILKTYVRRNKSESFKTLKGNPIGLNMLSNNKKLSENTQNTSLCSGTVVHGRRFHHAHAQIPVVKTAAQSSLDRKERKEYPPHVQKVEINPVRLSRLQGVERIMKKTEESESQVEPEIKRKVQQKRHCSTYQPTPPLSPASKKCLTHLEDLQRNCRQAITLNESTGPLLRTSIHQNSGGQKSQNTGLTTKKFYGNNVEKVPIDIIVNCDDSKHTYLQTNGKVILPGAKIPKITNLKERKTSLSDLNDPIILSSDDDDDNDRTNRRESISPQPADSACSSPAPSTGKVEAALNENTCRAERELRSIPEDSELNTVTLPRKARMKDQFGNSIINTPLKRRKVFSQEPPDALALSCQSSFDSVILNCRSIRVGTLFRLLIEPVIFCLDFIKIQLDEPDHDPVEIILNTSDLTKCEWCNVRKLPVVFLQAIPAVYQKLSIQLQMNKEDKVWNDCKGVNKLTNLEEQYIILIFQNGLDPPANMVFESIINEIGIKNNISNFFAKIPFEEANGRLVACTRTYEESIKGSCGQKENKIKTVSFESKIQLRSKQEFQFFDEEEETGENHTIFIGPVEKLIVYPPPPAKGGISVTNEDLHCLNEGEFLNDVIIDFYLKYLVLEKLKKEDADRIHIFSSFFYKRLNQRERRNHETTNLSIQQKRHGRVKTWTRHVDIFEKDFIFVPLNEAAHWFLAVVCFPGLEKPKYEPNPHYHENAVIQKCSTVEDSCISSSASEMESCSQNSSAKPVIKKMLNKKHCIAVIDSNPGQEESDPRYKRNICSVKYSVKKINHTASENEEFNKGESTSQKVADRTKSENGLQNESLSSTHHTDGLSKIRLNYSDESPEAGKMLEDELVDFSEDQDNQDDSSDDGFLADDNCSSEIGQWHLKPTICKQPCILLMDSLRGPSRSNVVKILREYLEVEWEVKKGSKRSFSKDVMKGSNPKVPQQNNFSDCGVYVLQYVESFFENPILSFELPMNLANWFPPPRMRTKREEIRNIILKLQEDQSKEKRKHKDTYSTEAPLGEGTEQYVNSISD
UniProt O14521: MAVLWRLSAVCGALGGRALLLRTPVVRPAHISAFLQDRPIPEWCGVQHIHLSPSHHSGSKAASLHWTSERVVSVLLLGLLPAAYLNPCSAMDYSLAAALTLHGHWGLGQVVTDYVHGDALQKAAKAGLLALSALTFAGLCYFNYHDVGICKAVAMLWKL
UniProt O15127: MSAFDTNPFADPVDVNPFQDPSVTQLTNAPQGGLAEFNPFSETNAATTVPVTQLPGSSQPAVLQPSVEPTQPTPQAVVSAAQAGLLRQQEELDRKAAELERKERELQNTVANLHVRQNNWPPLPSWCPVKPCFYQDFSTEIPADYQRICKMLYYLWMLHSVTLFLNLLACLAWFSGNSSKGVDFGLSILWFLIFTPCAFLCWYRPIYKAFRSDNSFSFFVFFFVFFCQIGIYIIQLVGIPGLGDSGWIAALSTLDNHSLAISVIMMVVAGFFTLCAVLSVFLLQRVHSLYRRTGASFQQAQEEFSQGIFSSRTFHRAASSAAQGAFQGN
UniProt Q9Y6B6: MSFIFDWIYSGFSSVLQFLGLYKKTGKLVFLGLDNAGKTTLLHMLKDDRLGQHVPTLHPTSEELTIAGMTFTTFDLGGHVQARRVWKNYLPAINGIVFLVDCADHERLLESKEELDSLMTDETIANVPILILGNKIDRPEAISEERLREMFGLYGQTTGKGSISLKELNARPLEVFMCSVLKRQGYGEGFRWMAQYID
UniProt Q99470: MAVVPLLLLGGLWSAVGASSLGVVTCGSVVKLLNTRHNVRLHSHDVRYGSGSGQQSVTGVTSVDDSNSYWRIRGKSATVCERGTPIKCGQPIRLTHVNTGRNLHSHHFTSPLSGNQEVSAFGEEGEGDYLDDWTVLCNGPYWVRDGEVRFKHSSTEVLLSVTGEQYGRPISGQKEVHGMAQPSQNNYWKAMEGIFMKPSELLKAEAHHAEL
UniProt Q96LD8: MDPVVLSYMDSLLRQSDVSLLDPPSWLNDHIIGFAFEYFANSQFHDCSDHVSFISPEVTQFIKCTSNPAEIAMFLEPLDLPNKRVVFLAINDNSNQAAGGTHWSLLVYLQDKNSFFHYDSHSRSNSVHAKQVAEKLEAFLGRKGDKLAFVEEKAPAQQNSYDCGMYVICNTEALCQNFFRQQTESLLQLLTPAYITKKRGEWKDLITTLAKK
UniProt P22307: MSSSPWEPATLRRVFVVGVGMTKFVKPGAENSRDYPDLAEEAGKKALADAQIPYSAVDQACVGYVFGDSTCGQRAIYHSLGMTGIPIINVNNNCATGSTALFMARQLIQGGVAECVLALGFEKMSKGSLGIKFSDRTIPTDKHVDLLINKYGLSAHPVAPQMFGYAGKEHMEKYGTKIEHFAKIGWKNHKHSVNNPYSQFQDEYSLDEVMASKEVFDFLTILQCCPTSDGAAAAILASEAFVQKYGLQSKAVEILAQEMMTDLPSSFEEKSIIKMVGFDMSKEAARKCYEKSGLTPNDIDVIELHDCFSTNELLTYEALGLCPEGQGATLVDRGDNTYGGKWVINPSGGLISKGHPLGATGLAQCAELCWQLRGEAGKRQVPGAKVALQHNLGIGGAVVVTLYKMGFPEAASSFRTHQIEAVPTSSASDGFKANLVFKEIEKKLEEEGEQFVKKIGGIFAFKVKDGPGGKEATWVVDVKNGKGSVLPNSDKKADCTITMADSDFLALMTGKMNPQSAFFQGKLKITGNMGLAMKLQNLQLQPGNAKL

Key:
Experiment in all cases: log2 fold change, soluble protein after heating vs DMSO (PISA); higher = thermal stabilisation; K562 lysate, 10 uM; active = over 0.2 and 3.5 SD of the protein, either way, in both replicates (recomputed)
lapatinib = compound: CS(=O)(=O)CCNCc1ccc(-c2ccc3ncnc(Nc4ccc(OCc5cccc(F)c5)c(Cl)c4)c3c2)o1 [lapatinib]
Outline: (§1)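 Values give the log-two fold change in thermal stability against solvent controls, from duplicates. Crude K562 extract at 1 mg/mL protein, made by dounce homogenisation in PBS pH 7.4 with 1 mM MgCl2, was treated with 10 μM compound for 30 min. After 3 min heating across 48°C-58°C, aliquots were pooled, adjusted to 0.5% NP-40 at 4°C and centrifuged at 21,000xg for 90 min. The supernatant was measured by TMTpro 16plex LC-MS/MS with channel sums equalised.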

pictilisib = compound: CS(=O)(=O)N1CCN(Cc2cc3nc(-c4cccc5[nH]ncc45)nc(N4CCOCC4)c3s2)CC1 [pictilisib]
Outline: as §1

[1] = compound: C[C@H](C1=CC=C(C=C1)C(=O)NC2=C3C=CNC3=NC=C2)N
Outline: as §1

duvelisib = compound: C[C@H](Nc1ncnc2nc[nH]c12)c1cc2cccc(Cl)c2c(=O)n1-c1ccccc1 [duvelisib]
Outline: as §1

gandotinib = compound: Cc1cc(Nc2cc(CN3CCOCC3)c3nc(C)c(Cc4ccc(Cl)cc4F)n3n2)n[nH]1 [gandotinib]
Outline: as §1

bafetinib = compound: Cc1ccc(NC(=O)c2ccc(CN3CC[C@H](N(C)C)C3)c(C(F)(F)F)c2)cc1Nc1nccc(-c2cncnc2)n1 [bafetinib]
Outline: as §1

[2] = compound: Cc1cccc(CC(=O)N2CCc3c2ccc(-c2cn(C)c4ncnc(N)c24)c3F)n1
Outline: as §1

nilotinib = compound: Cc1cn(-c2cc(NC(=O)c3ccc(C)c(Nc4nccc(-c5cccnc5)n4)c3)cc(C(F)(F)F)c2)cn1 [nilotinib]
Outline: as §1

[3] = compound: Cc1nc(Nc2n[nH]c3c2CN(C(=O)N[C@H](CN(C)C)c2ccccc2)C3(C)C)c2sccc2n1
Outline: as §1

dasatinib = compound: Cc1nc(Nc2ncc(C(=O)Nc3c(C)cccc3Cl)s2)cc(N2CCN(CCO)CC2)n1 [dasatinib]
Outline: as §1

[4] = compound: Cc1ncc(-c2ccnc(Nc3ccc(S(C)(=O)=O)cc3)n2)n1C(C)C
Outline: as §1

[5] = compound: Cn1cc(-c2ccc3c(c2)CCN3C(=O)Cc2cccc(C(F)(F)F)c2)c2c(N)ncnc21
Outline: as §1

tipifarnib = compound: Cn1cncc1[C@@](N)(c1ccc(Cl)cc1)c1ccc2c(c1)c(-c1cccc(Cl)c1)cc(=O)n2C [tipifarnib]
Outline: as §1

[6] = compound: NC(=O)c1cnc(N[C@@H]2CCCC[C@@H]2N)nc1Nc1cccc(-n2nccn2)c1
Outline: as §1

crizotinib = compound: C[C@@H](Oc1cc(-c2cnn(C3CCNCC3)c2)cnc1N)c1c(Cl)ccc(F)c1Cl [crizotinib]
Outline: as §1

tozasertib = compound: Cc1cc(Nc2cc(N3CCN(C)CC3)nc(Sc3ccc(NC(=O)C4CC4)cc3)n2)n[nH]1 [tozasertib]
Outline: as §1

doramapimod = compound: Cc1ccc(-n2nc(C(C)(C)C)cc2NC(=O)Nc2ccc(OCCN3CCOCC3)c3ccccc23)cc1 [doramapimod]
Outline: as §1

quisinostat = compound: Cn1cc(CNCC2CCN(c3ncc(C(=O)NO)cn3)CC2)c2ccccc21 [quisinostat]
Outline: as §1

[7] = compound: NC(=O)Nc1cc(-c2cccc(F)c2)sc1C(=O)N[C@H]1CCCNC1
Outline: as §1

[8] = compound: NC1(c2ccc(-c3nc4ccn5c(=O)[nH]nc5c4cc3-c3ccccc3)cc2)CCC1
Outline: as §1

Measured: log2 fold change

SELENOK (UniProt Q9Y6D0)
active: [1] -0.543 | gandotinib 0.52 | [2] 0.542
inactive: lapatinib -0.065 | pictilisib -0.048 | duvelisib 0.082 | bafetinib -0.027 | nilotinib -0.009 | [3] -0.032 | dasatinib 0.082 | [4] 0.064 | [5] -0.032 | tipifarnib -0.077 | [6] 0.001

SDHB, A0A087WWT1
inactive: lapatinib -0.019 | crizotinib -0.405 | [1] -0.181 | duvelisib -0.023 | gandotinib -0.124 | tozasertib 0.148 | doramapimod 0.502 | [2] 0.48 | nilotinib -0.067 | [3] 0.074 | dasatinib -0.393 | [4] -0.015 | [5] 0.138 | quisinostat -0.085 | tipifarnib 0.075 | [7] -0.094 | [6] 0.007 | [8] 0.014

SENP5 (UniProt Q96HI0)
inactive: lapatinib -0.124 | pictilisib -0.29 | crizotinib -0.076 | duvelisib 0.016 | tozasertib -0.011 | doramapimod 0.011 | bafetinib -0.045 | nilotinib -0.022 | [3] -0.025 | dasatinib -0.07 | [4] -0.016 | [5] -0.122 | quisinostat -0.047 | tipifarnib 0.02 | [7] 0.085 | [6] 0.057 | [8] -0.079

SAMD9 (UniProt Q5K651)
inactive: lapatinib 0.05 | crizotinib 0.064 | [1] -0.095 | gandotinib -0.047 | tozasertib 0.022 | doramapimod 0.153 | [2] 0.007 | nilotinib -0.08 | [3] 0.032 | [4] 0.127 | quisinostat -0.074 | tipifarnib 0.151 | [7] 0.008 | [6] 0.067

SENP6 (UniProt Q9GZR1)
inactive: lapatinib -0.032 | pictilisib -0.022 | crizotinib 0.011 | [1] -0.004 | duvelisib 0.031 | gandotinib 0.039 | tozasertib 0.028 | doramapimod 0.01 | bafetinib 0.034 | [2] 0.049 | nilotinib 0.055 | [3] 0.018 | dasatinib 0.031 | [4] -0.002 | [5] 0.046 | quisinostat -0.067 | tipifarnib -0.01 | [7] -0.013 | [6] -0.006 | [8] 0.055

SDHD (UniProt O14521)
inactive: lapatinib -0.137 | crizotinib -0.146 | [1] -0.068 | duvelisib -0.074 | gandotinib 0.25 | tozasertib -0.055 | doramapimod 0.017 | [2] 0.051 | nilotinib 0.022 | [3] 0.036 | dasatinib 0.005 | [4] 0.344 | [5] 0.109 | quisinostat -0.081 | tipifarnib -0.064 | [7] 0.049 | [6] -0.025 | [8] 0.035

SCAMP2 (UniProt O15127)
inactive: lapatinib 0.018 | pictilisib -0.005 | crizotinib 0.073 | [1] -0.076 | duvelisib 0.078 | gandotinib 0.016 | tozasertib -0.001 | doramapimod 0 | bafetinib -0.076 | [2] 0.006 | nilotinib -0.015 | [3] 0.025 | dasatinib 0.018 | [4] -0.051 | [5] -0.024 | quisinostat -0.061 | tipifarnib 0.05 | [7] -0.053 | [6] 0.055 | [8] -0.004

SAR1B (UniProt Q9Y6B6)
inactive: lapatinib 0.122 | pictilisib 0.036 | crizotinib -0.056 | [1] -0.031 | duvelisib 0.004 | tozasertib -0.005 | bafetinib -0.079 | [2] 0.08 | nilotinib 0.202 | [3] 0.101 | dasatinib 0.047 | [4] -0.013 | [5] -0.038 | quisinostat 0.028 | tipifarnib -0.217 | [7] -0.02 | [6] -0.092 | [8] -0.016
active: gandotinib 0.44 | doramapimod 0.578

SDF2 (UniProt Q99470)
inactive: lapatinib -0.366 | pictilisib 0.024 | crizotinib -0.077 | doramapimod -0.021 | bafetinib 0.059 | nilotinib 0.157 | [3] 0.054 | [4] 0.202 | quisinostat -0.13 | tipifarnib -0.156 | [7] -0.03 | [6] -0.182

SENP8 (UniProt Q96LD8)
inactive: lapatinib -0.004 | pictilisib -0.062 | crizotinib -0.143 | duvelisib 0.078 | tozasertib -0.148 | doramapimod 0.012 | bafetinib 0.107 | nilotinib -0.102 | [3] 0.365 | dasatinib -0.216 | [4] -0.084 | [5] -0.124 | quisinostat -0.024 | tipifarnib -0.375 | [7] -0.007 | [6] -0.008 | [8] -0.005

SDAD1 (UniProt Q9NVU7)
inactive: lapatinib -0.045 | pictilisib -0.014 | crizotinib -0.05 | [1] 0.007 | duvelisib 0.043 | gandotinib -0.014 | tozasertib -0.005 | doramapimod -0.019 | bafetinib -0.082 | [2] 0.067 | nilotinib 0.011 | [3] 0.01 | dasatinib -0.026 | [4] 0.024 | [5] 0.01 | quisinostat 0.005 | tipifarnib 0.018 | [7] 0.004 | [6] 0.013 | [8] -0.034

SCP2 (UniProt P22307)
inactive: lapatinib 0.011 | pictilisib -0.025 | crizotinib 0.033 | [1] 0.113 | duvelisib 0.002 | gandotinib -0.001 | tozasertib -0.025 | doramapimod 0 | bafetinib -0.002 | [2] -0.05 | nilotinib 0.022 | [3] -0.021 | dasatinib 0.053 | [4] -0.001 | [5] -0.021 | quisinostat 0 | tipifarnib 0.004 | [7] -0.002 | [6] -0.013 | [8] 0.006
